Results on one substance are retold here after publication PMC12394690.

These are yes or no findings as the source states them, for the method shown. Binding seen in cells or lysates may run through a third protein. Binding can be weak; no strength is given. Sequences can lack the tags named with a protein.

The target of this assay is T1, DCAF7 of the GST pull-down (UniProt P61962).
T1 sequence: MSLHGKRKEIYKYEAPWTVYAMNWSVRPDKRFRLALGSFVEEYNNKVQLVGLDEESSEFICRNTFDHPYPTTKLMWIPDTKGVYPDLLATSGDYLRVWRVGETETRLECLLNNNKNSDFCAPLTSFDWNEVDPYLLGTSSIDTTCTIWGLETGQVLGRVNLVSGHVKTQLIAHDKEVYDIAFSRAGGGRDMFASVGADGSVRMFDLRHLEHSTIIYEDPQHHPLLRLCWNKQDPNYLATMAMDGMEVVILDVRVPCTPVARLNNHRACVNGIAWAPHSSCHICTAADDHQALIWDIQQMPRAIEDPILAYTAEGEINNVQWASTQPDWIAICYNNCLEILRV
As to the kind of experiment: pull-down; GST pull-down in vitro; the paper calls the binding direct; which partner carried GST is not told.

Regarding “USP2b of the GST pull-down (from UniProt O75604-4) (enzyme)”, the binding entry is “binds”.
